# Data published in paper PMC3040216.
# T1: ERFAD-HA (UniProt Q8IWF2)
# T1 sequence: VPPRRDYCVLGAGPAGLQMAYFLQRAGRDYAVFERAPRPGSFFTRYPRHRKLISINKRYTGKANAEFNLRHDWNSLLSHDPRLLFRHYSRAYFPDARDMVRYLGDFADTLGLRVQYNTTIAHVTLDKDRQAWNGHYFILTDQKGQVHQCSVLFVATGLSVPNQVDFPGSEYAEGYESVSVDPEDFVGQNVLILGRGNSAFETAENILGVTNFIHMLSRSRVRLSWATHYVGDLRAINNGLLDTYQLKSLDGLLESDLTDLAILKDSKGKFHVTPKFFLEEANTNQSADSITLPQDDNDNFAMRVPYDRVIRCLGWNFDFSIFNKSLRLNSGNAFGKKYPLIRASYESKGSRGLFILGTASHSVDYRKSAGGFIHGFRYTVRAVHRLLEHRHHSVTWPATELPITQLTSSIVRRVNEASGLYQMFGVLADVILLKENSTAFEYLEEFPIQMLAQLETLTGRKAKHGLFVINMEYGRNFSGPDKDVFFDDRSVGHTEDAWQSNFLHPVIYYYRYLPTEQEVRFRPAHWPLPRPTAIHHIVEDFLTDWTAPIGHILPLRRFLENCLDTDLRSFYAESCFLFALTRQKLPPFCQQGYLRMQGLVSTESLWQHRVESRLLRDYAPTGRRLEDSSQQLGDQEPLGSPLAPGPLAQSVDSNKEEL
# B1: ERp90 (endogenous) (protein, UniProt Q9P2K2 28-825)
# chain: LPELSPQKYFSTLQPGKASLAYFCQADSPRTSVFLEELNEAVRPLQDYGISVAKVNCVKEEISRYCGKEKDLMKAYLFKGNILLREFPTDTLFDVNAIVAHVLFALLFSEVKYITNLEDLQNIENALKGKANIIFSYVRAIGIPEHRAVMEAAFVYGTTYQFVLTTEIALLESIGSEDVEYAHLYFFHCKLVLDLTQQCRRTLMEQPLTTLNIHLFIKTMKAPLLTEVAEDPQQVSTVHLQLGLPLVFIVSQQATYEADRRTAEWVAWRLLGKAGVLLLLRDSLEVNIPQDANVVFKRAEEGVPVEFLVLHDVDLIISHVENNMHIEEIQEDEDNDMEGPDIDVQDDEVAETVFRDRKRKLPLELTVELTEETFNATVMASDSIVLFYAGWQAVSMAFLQSYIDVAVKLKGTSTMLLTRINCADWSDVCTKQNVTEFPIIKMYKKGENPVSYAGMLGTEDLLKFIQLNRISYPVNITSIQEAEEYLSGELYKDLILYSSVSVLGLFSPTMKTAKEDFSEAGNYLKGYVITGIYSEEDVLLLSTKYAASLPALLLARHTEGKIESIPLASTHAQDIVQIITDALLEMFPEITVENLPSYFRLQKPLLILFSDGTVNPQYKKAILTLVKQKYLDSFTPCWLNLKNTPVGRGILRAYFDPLPPLPLLVLVNLHSGGQVFAFPSDQAIIEENLVLWLKKLEAGLENHITILPAQEWKPPLPAYDFLSMIDAATSQRGTRKVPKCMKETDVQENDKEQHEDKSAVRKEPIETLRIKHWNRSNWFKEAEKSFRRDKELGCSKVN
# modifications: N-glycans (EndoH-sensitive)
# Molecular target: T1, ERFAD-HA
# Test: affinity purification with mass spectrometry; upscaled anti-HA co-IP from A11 cells, EndoH-treated sample, band excised from an SDS-PAGE gel, trypsin digestion, mass spectrometry
binder,measurement,value
B1,binding,binds

# Results are given in words; binding and its absence hold for the method and conditions named. Binding seen in cells or lysates may run through a third protein. A yes stands for co-enrichment or nearness to the bait. Other partners may have been found. Sequences can lack the tags named with a protein.
